Data from patent US20150086574A1 (CELLERANT THERAPEUTICS, published 2015).
These are yes or no findings as the source states them, for the method shown. Some results given as binding are weak or reduced against the parent protein; the word gives no strength.

Amino acid sequences for entries named in this document (tags omitted). A change or cut given only in a name is not applied to a line headed by its entry.
UniProt Q8TDQ0: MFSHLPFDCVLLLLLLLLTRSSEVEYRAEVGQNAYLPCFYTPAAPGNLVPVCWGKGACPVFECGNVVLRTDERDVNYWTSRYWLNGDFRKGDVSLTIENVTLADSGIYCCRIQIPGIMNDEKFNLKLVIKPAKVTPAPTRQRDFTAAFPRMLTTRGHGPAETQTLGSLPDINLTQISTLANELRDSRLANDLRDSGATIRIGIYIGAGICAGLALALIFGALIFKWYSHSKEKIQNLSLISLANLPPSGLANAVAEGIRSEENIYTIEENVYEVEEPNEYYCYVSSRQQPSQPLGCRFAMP

B1: 33.2A5 (antibody, IgG1, V domains shown)
VH: QVQLQQSGAELAKPGVSVKMSCKASGYTSNYNWIHWIKQRPGQGLEWIGYINPATGYTDYNQKFRDKVTLTADKSSSTAYMQLSSLTSEDSALYYCTTGRNDEGGYALDSWGQGTSVTVSS
VL: GVVVTQSPTSLAVSLGQRATISCKASQSVDHAGDSYMNWYQQKAGQPPKLLIYGASYLESVIPGRFSGSGSGTDFTLNIHPVEEEDVATYFCQQSNEDPYTFG
B2: 1.7E10 (antibody, V domains shown)
VH: EVKLLESGGGLVQPGGSLKLSCAASGFDFSRYWMSWVRQAPGKGLEWIGEINPDSSTINYTPSLKDKFIISRDNAKNTLFLQMSKVRSEDTALYYCARPSYDGYYGYAMDYWGQGTSVTVSS
VL: DIVLTQSPASLAVSLGQRATISCRASESVDSYGKSFMHWYQQKPGQPPKLLIYRASNLESGIPARFSGSGSRTDFTLTINPVEADDVATYYCQQSNEDPYTFGGGTKLEIKR
B3: 6.14B9 (antibody, V domains shown)
VH: DVQLQESGPGLVKPSQSLSLTCTVTGYSITSDYAWNWIRQFPGNKLEWMGYISYSGSISYNPSLKSRISITRDTSKNQFFLQLNSVTTEDTATYYCARSGRLRRDFDYWGQGTTLT
VL: DIQMTQSPSSLSASLGERVSLTCRASQEISGYLSWLQQKPDGTIKRLIYAASTLDSGVPKRFSGSRSGSDYSLTISSLESEDFADYYCLQYASYPLTFGAGTKLELK
B4: 7.10F6 (antibody, IgG1, V domains shown)
VH: EVQLVESGGGLVQPGGSLKLSCAASGFIFSGYGMSWVRQTPDKRLELVAIINSNGGSVDYPDSVKGRVTISRDNAKNTLYLQMSSLKSEDTAMYYCARIYYRCMDYWGQGTSVTVSS
VL: NIMMTQSPSSLAVSAGEKVTMSCKSSQSLLYSSNQKNYLAWYQQKPGQSPKLLIYWASARESGVPDRFTGGGSGTDFTLTISSVQAEDLAVYYCHQYLSSYTFGGGTKLEIKR
notes: also called 7.10F6.1; 7.10F6.1-pure
B5: 33.1G12 (antibody, IgG1, V domains shown)
VH: EVQLQQSGPELVKPGASVKISCKASGYSFTGYLMNWVMQSHGKSLEWIGRINPYNGDIFYNQKFKDKATLTVDKSSSTAHMELRSLASEDSAVYYCARRDENFDYDNAMDYWGQGTSVTL
VL: DIVLTQSPASLAVSLGQRATISCRASESVDIYGNSFMHWYQQKPGQPPKLLIYRASNLESGIPARFRGSGSRTDFTLTIYPVEADDVATYYCQQSNEDPWTFGGGTKLEIK
notes: the printed VH ends early (…GQGTSVT)
B6: 27.12E12 (antibody, V domains shown)
VH: EVQLQQSGAELVRPGALVKLSCKASGFNIKDYYMYWMKQRPEQGLEWIGWIDPENVKTIYDPKFQGRATLTADTSSNTAYLQLSSLTSEDTAVYYCTRDFGYVGFFDVWGAGTTVTVSS
VL: DIVMTQSQKFMSTSVGDRVSVNCKASQNVGTNVVWYQQKPGQSPKALIYSASYRYSGVPDRFTGSGSGTDFTLTISTVQSEDLAEYFCQQYNSYPLTFGGGTKLEIKR
B7: 27.2H4 (antibody, IgG1, V domains shown)
VH: EVQLQQSGAELVRPGALVKLSCKASGFNIKHYYIHWVNQRPEQGLEWIGWIDPETGNTIYDPKFQGKASITADTSSSTAYLQLNSLTSEDTAVYCCARGWSYAMDYWGQGTSVIVSS
VL: DIVMTQSHKFMSTSVGDRVSITCKASQDVNTAVAWYQQKPGHSPKLLIYSASYHYTGVPDRFTGSGSGTDFTFTISSVQAEDLAVYYCQQHYSTPWTFGGGTKLEIK
notes: also called 27.2H4 (D2.1)

What follows are binders tested against T cell Immunoglobulin- and Mucin domain-containing molecule 3 (TIM3), human, on cells (human) (UniProt Q8TDQ0) (assay: flow cytometry, TIM3 expressing cell lines).

For B1, which binding is on record?
The binding was “binds”.

These binders were tested against recombinant TIM3 protein (Homo sapiens (Human)) (UniProt Q8TDQ0) (assay: ELISA screen of hybridomas).

With B2 as the binder, how does the binding read?
Its binding is “binds”.

How did the binding turn out when B3 was run?
Its binding is “binds”.

Which binding does the source give for B1 here?
Its binding is “binds”.

B4 was tested. Which binding did it give?
The binding was “binds”.

With B5 as the binder, how does the binding read?
Its binding is “binds”.

B6 was tested. Which binding did it give?
The binding was “binds”.

For B7, which binding is on record?
The binding was “binds”.
